# Data as given in PubChem BioAssay AID743454 (Peter MacCallum Cancer Centre, 2014).
# Screen: 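Genes whose loss kills vorinostat-resistant colon cancer cells under vorinostat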 (primary screen)
# Cells: human HCT116-VR colon cancer cells, selected for vorinostat resistance
# Reagent: siRNA pool against human genes, 40 nM siRNA pool
# Timing: vorinostat for 24 h, read-out about 72 h after transfection
# Challenge: vorinostat at 2.5 µM final
# Read-out: 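Two measures, CellTiter-Fluor viability and luminescent caspase 3/7 activity, each as fold change against same-plate mock wells, mean of duplicates, then screen-wide robust z-score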
# Scale: viability robust z-score: higher = more viable cells than screen typical; caspase robust z-score: higher = more caspase 3/7 activity than screen typical
# Hit rule: 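a knock-down is a hit when classed RV1 or RV2 for lowered viability, or CA1 or CA2 for caspase activation; those lethal without drug were dropped; hits were retested singly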
# This is a random part of about 18,000 reagents tested. 450 of them (2.5%) were called active. 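Single biological run; no consistent viability z cut-off exists, so the class columns, not z-scores, define the calls.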 A number with no mark means an inactive call. No sequences are given here.
target,PubChem SID,viability hit class,caspase hit class,viability robust z-score,caspase robust z-score
GLT1D1 (glycosyltransferase 1 domain containing 1),SID135623033,no change,no change,1.69,-0.21
DPYD (dihydropyrimidine dehydrogenase),SID152156597,no change,no change,0.65,-0.29
CDH18 (cadherin 18),SID134316298,no change,no change,-0.68,-1.41
CLDN20 (claudin 20),SID152150046,no change,no change,2.83,0.07
PRPF6 (pre-mRNA processing factor 6),SID152155903,no change,no change,-2.37,-0.63
PAWR (pro-apoptotic WT1 regulator),SID135620829,no change,no change,0.6,-0.85
DEF8 (differentially expressed in FDCP 8 homolog),SID135624030,no change,no change,1.14,-0.15
DNHD1 (dynein heavy chain domain 1),SID135623035,no change,no change,0.64,-0.44
DNHD1 (dynein heavy chain domain 1),SID135623498,no change,no change,-0.99,3.34
ITK (IL2 inducible T cell kinase),SID135620623,no change,no change,0.86,0.78
SSBP4 (single stranded DNA binding protein 4),SID152148006,no change,no change,0.12,-0.82
RPL10 (ribosomal protein L10),SID134316454,no change,no change,-4.57,-1.5
MRPL23 (mitochondrial ribosomal protein L23),SID134317359,no change,no change,1.06,-0.26
AK2 (adenylate kinase 2),SID56479162,no change,no change,-1.52,2.13
PSMB2 (proteasome 20S subunit beta 2),SID134314989,no change,no change,-3.67,2.91
ENG (endoglin),SID134315390,no change,no change,0.66,-0.21
SLC23A2,SID134312508,no change,no change,1.62,0.11
DOP1B (DOP1 leucine zipper like protein B),SID134323667,no change,no change,1.52,1.53
RIN3 (Ras and Rab interactor 3),SID134318647,no change,no change,0.14,-0.64
UBAP2L (ubiquitin associated protein 2 like),SID152153195,no change,no change,-1.19,3.79
PID1 (phosphotyrosine interaction domain containing 1),SID135623636,no change,no change,0.21,-0.55
HAPLN1 (hyaluronan and proteoglycan link protein 1),SID134323298,no change,no change,0.42,-0.17
LNPEP (leucyl and cystinyl aminopeptidase),SID152151687,no change,no change,-0.64,-0.31

Sorted by “caspase robust z-score” (low to high): some entries from above.
target,PubChem SID,viability hit class,caspase hit class,viability robust z-score,caspase robust z-score
RIN3 (Ras and Rab interactor 3),SID134318647,no change,no change,0.14,-0.64
SLC23A2,SID134312508,no change,no change,1.62,0.11
DOP1B (DOP1 leucine zipper like protein B),SID134323667,no change,no change,1.52,1.53
UBAP2L (ubiquitin associated protein 2 like),SID152153195,no change,no change,-1.19,3.79
